Assay results published in PubChem BioAssay AID330 (DTP/NCI, 2004).
The list is a part of this screen's results and no random one: it is rich in T/C values a quarter to a half above the control, in often repeated tests (any T/C) and in doses without a T/C. Other doses and runs of a compound stand elsewhere. T/C is the treated group as % of the vehicle group. Some doses have a count of surviving animals in place of a T/C: the source files T/C as zero there, which appears to mark a toxic dose or a test without result, not a measured value. Some doses without a T/C left all or most animals alive at the check, yet need not have been tolerated: survival well below the control is almost never listed, so the zero probably covers shortened survival too. Counts of survivors are from the toxicity check (mostly the fifth day) where no day follows; animals may have died later. Schedule codes are those of the source, read here as Q, the interval in days (D) or hours (H), X, the number of doses. Some entries hold several experiments; the results are listed from low to high. For survival time, the PubChem record calls one and a half times the control and up active, and a quarter to a half above the control has no call in these data; cut-offs in other NCI protocols can differ. Some T/C values are followed by the survivors on the day toxicity was checked, most often the fifth; where none is given, no animal had died by that day.

Tested on: P388 leukemia ip, CD2F1 mice, survival T/C
Assay: NCI In Vivo Anticancer Drug Screen. Data for tumor model P388 Leukemia (intraperitoneal) in CD2F1 (CDF1) mice
Conditions: T/C endpoint: median survival time, higher T/C = longer survival
[1] = dose: 200.0 mg/kg/injection, schedule: Q01DX009 (ip), vehicle: saline with Tween-80
[2] = dose: 100.0 mg/kg/injection, schedule: Q01DX005 (ip), vehicle: Klucel (hydroxypropylcellulose) (HPC)
[3] = dose: 100.0 mg/kg/injection, schedule: Q01DX005 (ip), vehicle: saline with Tween-80
[4] = dose: 100.0 mg/kg/injection, schedule: Q04DX002 (ip), vehicle: saline with Tween-80
[5] = dose: 200.0 mg/kg/injection, schedule: Q04DX002 (ip), vehicle: saline with Tween-80
[6] = dose: 400.0 mg/kg/injection, schedule: Q04DX002 (ip), vehicle: saline with Tween-80
[7] = dose: 50.0 mg/kg/injection, schedule: Q01DX009 (ip), vehicle: saline with Tween-80
[8] = dose: 100.0 mg/kg/injection, schedule: Q01DX009 (ip), vehicle: saline with Tween-80
[9] = dose: 100.0 mg/kg/injection, schedule: Q01DX005 (ip), vehicle: saline
[10] = dose: 240.0 mg/kg/injection, schedule: Q01DX005 (ip), vehicle: Klucel (hydroxypropylcellulose) (HPC)
[11] = dose: 100.0 mg/kg/injection, schedule: Q01DX009 (ip), vehicle: Klucel (hydroxypropylcellulose) (HPC)
[12] = dose: 200.0 mg/kg/injection, schedule: Q01DX009 (ip), vehicle: Klucel (hydroxypropylcellulose) (HPC)
[13] = dose: 200.0 mg/kg/injection, schedule: Q01DX005 (ip), vehicle: saline with Tween-80
[14] = dose: 12.5 mg/kg/injection, schedule: Q01DX009 (ip), vehicle: other

## ClCC1CSC(c2ccc3c(c2)OCO3)O1 (configuration not stated)
[1]
  T/C: 131 % of control
dose: 400.0 mg/kg/injection, schedule: Q01DX009 (ip), vehicle: saline with Tween-80
  T/C: 137 % of control

## COC(=O)C(C)NC(=O)C(CCSC)NC(=O)OC(C)(C)C (configuration not stated)
[2]
  survivor count: 3 of 5

## COc1cc(Br)c(CC(=O)c2ccc3c(c2)OCO3)cc1OC
[3]
  survivor count: 6 of 6

## CO[C@@H]1C2=CC=CC=C[C@H]2n2c(=O)n(C)c(=O)n21
dose: 600.0 mg/kg/injection, schedule: Q01DX005 (ip), vehicle: other
  survivor count: 0 of 6
dose: 1200.0 mg/kg/injection, schedule: Q01DX005 (ip), vehicle: other
  survivor count: 0 of 6

## C[N+]1(C)CCC(Cl)CC1
dose: 60.0 mg/kg/injection, schedule: Q01DX005 (ip), vehicle: saline
  survivor count: 2 of 6
dose: 120.0 mg/kg/injection, schedule: Q01DX005 (ip), vehicle: saline
  survivor count: 0 of 6
dose: 240.0 mg/kg/injection, schedule: Q01DX005 (ip), vehicle: saline
  survivor count: 0 of 6

## CN(C)c1ccc(C(Cl)[O][Sn]([CH3])([CH3])[Cl])cc1 (configuration not stated)
[4]
  survivor count: 0 of 6 and 4 of 6
[5]
  survivor count: 0 of 6
[6]
  survivor count: 0 of 6

## CC(=Nc1ccccc1)C1=C(O)C(Cc2ccccc2)NC1=O (configuration not stated)
[7]
  T/C: 137 % of control
[8]
  T/C: 141 % of control
[1]
  survivor count: 5 of 6

## COC1OC2COC(c3ccccc3)OC2C(OS(=O)(=O)c2ccc(C)cc2)C1OS(=O)(=O)c1ccc(C)cc1 (configuration not stated)
[7]
  survivor count: 6 of 6

## N=C(N)N1CCNc2ccc(Cl)cc2C1
[6]
  survivor count: 5 of 6

## Nc1nc(Cl)nc2c1ncn2C1OC(CO)C(O)C1F (configuration not stated)
dose: 25.0 mg/kg/injection, schedule: Q01DX005 (ip), vehicle: saline
  T/C: 131 % of control
dose: 50.0 mg/kg/injection, schedule: Q01DX005 (ip), vehicle: saline
  T/C: 135 % of control
[9]
  T/C: 136 and 138 % of control
dose: 300.0 mg/kg/injection, schedule: Q01DX005 (ip), vehicle: saline
  survivor count: 0 of 3

## CCCCN(CCNc1cc(OC)cc2cccnc12)C(C)CC (configuration not stated)
[9]
  survivor count: 4 of 5
dose: 200.0 mg/kg/injection, schedule: Q01DX005 (ip), vehicle: saline
  survivor count: 0 of 5

## CCC(C)C1NC(=O)C(NC(=O)c2c3nc4c(C(=O)NC5C(=O)NC(C(C)CC)C(=O)N6CCCC6C(=O)N(C)CC(=O)N(C)C(C(C)C)C(=O)OC5C)ccc(C)c4oc-3c(C)c(=O)c2Cl)C(C)OC(=O)C(C(C)C)N(C)C(=O)CN(C)C(=O)C2CCCN2C1=O (configuration not stated)
dose: 1.6 mg/kg/injection, schedule: Q01DX009 (ip), vehicle: water
  T/C: 138 [5 of 6 alive] and 139 % of control

## CC(/C=C/c1ccc(O)cc1)=N\NC(N)=S
dose: 60.0 mg/kg/injection, schedule: Q01DX005 (ip), vehicle: Klucel (hydroxypropylcellulose) (HPC)
  survivor count: 0 of 6
dose: 120.0 mg/kg/injection, schedule: Q01DX005 (ip), vehicle: Klucel (hydroxypropylcellulose) (HPC)
  survivor count: 0 of 6
[10]
  survivor count: 0 of 6

## C/C(=N\SC(c1ccccc1)(c1ccccc1)c1ccccc1)c1ccccc1
dose: 400.0 mg/kg/injection, schedule: Q01DX001 (ip), vehicle: saline with Tween-80
  survivor count: 6 of 6

## CN(C)c1ccc(SC(=S)NCc2ccccc2)cc1
[10]
  survivor count: 4 of 6

## CC(=O)Nc1cccc2c1C(=O)c1nccnc1C2=O
dose: 100.0 mg/kg/injection, schedule: Q04DX002 (ip), vehicle: Klucel + Tween-80
  survivor count: 1 of 6
dose: 200.0 mg/kg/injection, schedule: Q04DX002 (ip), vehicle: Klucel + Tween-80
  survivor count: 0 of 6
dose: 400.0 mg/kg/injection, schedule: Q04DX002 (ip), vehicle: Klucel + Tween-80
  survivor count: 0 of 6

## C=CCNSc1cccc([N+](=O)[O-])c1
dose: 12.5 mg/kg/injection, schedule: Q01DX009 (ip), vehicle: Klucel (hydroxypropylcellulose) (HPC)
  T/C: 129 % of control
dose: 25.0 mg/kg/injection, schedule: Q01DX009 (ip), vehicle: Klucel (hydroxypropylcellulose) (HPC)
  T/C: 126 % of control
[11]
  survivor count: 0 of 6
[12]
  survivor count: 0 of 6

## CS(=O)(=O)OC1COCOC1C1OCOCC1OS(C)(=O)=O (configuration not stated)
[11]
  survivor count: 6 of 6

## CN1c2ccccc2C(=O)N2C(=O)CCC21C (configuration not stated)
dose: 240.0 mg/kg/injection, schedule: Q01DX005 (ip), vehicle: saline with Tween-80
  survivor count: 0 of 6

## ICCCCCCCCCC[n+]1ccc2ccccc2c1
[3]
  survivor count: 3 of 5
[13]
  survivor count: 0 of 5

## O=C1C=CC(=O)C(c2ccc(Cl)cc2)=C1
[7]
  survivor count: 4 of 6

## N#CCc1ccc(Cl)c(Cl)c1
dose: 50.0 mg/kg/injection, schedule: Q04DX003 (ip), vehicle: saline with Tween-80
  survivor count: 3 of 6

## COc1ccc(OC)c2c(Cl)ccnc12
dose: 50.0 mg/kg/injection, schedule: Q01DX005 (ip), vehicle: saline with Tween-80
  survivor count: 0 of 6
[3]
  survivor count: 0 of 6
[13]
  survivor count: 0 of 6

## CC#CCOCC(O)CO (configuration not stated)
dose: 100.0 mg/kg/injection, schedule: Q01DX009 (ip), vehicle: water
  T/C: 130 and 131 % of control
dose: 150.0 mg/kg/injection, schedule: Q01DX009 (ip), vehicle: water
  T/C: 141 % of control
dose: 200.0 mg/kg/injection, schedule: Q01DX009 (ip), vehicle: water
  survivor count: 3 of 6

## CCCCCN(CCCCC)c1ccc(/C=C/c2ccnc3ccccc23)cc1
[11]
  T/C: 127 % of control [5 of 6 alive]
[12]
  survivor count: 5 of 6

## CCC[CH2][Sn](=[S])[CH2]CCC
dose: 3.13 mg/kg/injection, schedule: Q01DX009 (ip), vehicle: other
  T/C: 133 % of control
dose: 6.25 mg/kg/injection, schedule: Q01DX009 (ip), vehicle: other
  survivor count: 3 of 6
[14]
  T/C: 140 % of control
  survivor count: 0 of 6
dose: 12.5 mg/kg/injection, schedule: Q04DX003 (ip), vehicle: other
  survivor count: 4 of 6
dose: 25.0 mg/kg/injection, schedule: Q01DX009 (ip), vehicle: other
  survivor count: 2 of 6
dose: 25.0 mg/kg/injection, schedule: Q04DX003 (ip), vehicle: other
  survivor count: 4 of 6
dose: 50.0 mg/kg/injection, schedule: Q01DX009 (ip), vehicle: other
  survivor count: 1 of 6
dose: 50.0 mg/kg/injection, schedule: Q04DX003 (ip), vehicle: other
  survivor count: 0 of 6
dose: 100.0 mg/kg/injection, schedule: Q01DX009 (ip), vehicle: other
  survivor count: 0 of 6

## CN1CCC23c4c5ccc(O)c4OC2C(O)C=CC3C1C5 (configuration not stated)
dose: 256.0 mg/kg/injection, schedule: Q01DX009 (ip), vehicle: saline
  T/C: 125 % of control

## Cc1cc(N/N=C/c2ccnc3ccccc23)c2cc3c(cc2n1)OCO3
dose: 50.0 mg/kg/injection, schedule: Q01DX005 (ip), vehicle: Klucel (hydroxypropylcellulose) (HPC)
  survivor count: 5 of 6
[2]
  survivor count: 5 of 6
dose: 200.0 mg/kg/injection, schedule: Q01DX005 (ip), vehicle: Klucel (hydroxypropylcellulose) (HPC)
  survivor count: 5 of 6

## C=CCN1CSC(=S)N(CC=C)C1
[8]
  T/C: 129 % of control
  survivor count: 3 of 6
[1]
  survivor count: 1 of 6 and 2 of 6

## C[C@H]1O[C@H](C)[C@H](O)C2=C1C(=O)c1ccccc1C2=O
[4]
  T/C: 94, 103 [5 of 6 alive], 105, 128 % of control
[5]
  survivor count: 2 of 6 and 3 of 6
[6]
  survivor count: 5 of 6

## Cn1c2ccccc2c(=O)c2c(O)cc3c(c21)CC(C1(C)CO1)O3 (configuration not stated)
dose: 32.0 mg/kg/injection, schedule: Q01DX005 (ip), vehicle: Klucel (hydroxypropylcellulose) (HPC)
  T/C: 126 % of control

## COc1cc(C/C(=C\c2cc(OC)c(OC)c(OC)c2)[N+](=O)[O-])ccc1OCc1ccccc1
dose: 200.0 mg/kg/injection, schedule: Q01DX001 (ip), vehicle: Klucel (hydroxypropylcellulose) (HPC)
  survivor count: 6 of 6
